From publication PMC3566157
These are yes or no findings as the source states them, for the method shown. Some entries that bind do so weakly or less than the wild type.

Protein sequences, listed by entry. Tags and fused reporters are not part of them. Residues count along the entry.
UniProt Q02763, residues 23-1124: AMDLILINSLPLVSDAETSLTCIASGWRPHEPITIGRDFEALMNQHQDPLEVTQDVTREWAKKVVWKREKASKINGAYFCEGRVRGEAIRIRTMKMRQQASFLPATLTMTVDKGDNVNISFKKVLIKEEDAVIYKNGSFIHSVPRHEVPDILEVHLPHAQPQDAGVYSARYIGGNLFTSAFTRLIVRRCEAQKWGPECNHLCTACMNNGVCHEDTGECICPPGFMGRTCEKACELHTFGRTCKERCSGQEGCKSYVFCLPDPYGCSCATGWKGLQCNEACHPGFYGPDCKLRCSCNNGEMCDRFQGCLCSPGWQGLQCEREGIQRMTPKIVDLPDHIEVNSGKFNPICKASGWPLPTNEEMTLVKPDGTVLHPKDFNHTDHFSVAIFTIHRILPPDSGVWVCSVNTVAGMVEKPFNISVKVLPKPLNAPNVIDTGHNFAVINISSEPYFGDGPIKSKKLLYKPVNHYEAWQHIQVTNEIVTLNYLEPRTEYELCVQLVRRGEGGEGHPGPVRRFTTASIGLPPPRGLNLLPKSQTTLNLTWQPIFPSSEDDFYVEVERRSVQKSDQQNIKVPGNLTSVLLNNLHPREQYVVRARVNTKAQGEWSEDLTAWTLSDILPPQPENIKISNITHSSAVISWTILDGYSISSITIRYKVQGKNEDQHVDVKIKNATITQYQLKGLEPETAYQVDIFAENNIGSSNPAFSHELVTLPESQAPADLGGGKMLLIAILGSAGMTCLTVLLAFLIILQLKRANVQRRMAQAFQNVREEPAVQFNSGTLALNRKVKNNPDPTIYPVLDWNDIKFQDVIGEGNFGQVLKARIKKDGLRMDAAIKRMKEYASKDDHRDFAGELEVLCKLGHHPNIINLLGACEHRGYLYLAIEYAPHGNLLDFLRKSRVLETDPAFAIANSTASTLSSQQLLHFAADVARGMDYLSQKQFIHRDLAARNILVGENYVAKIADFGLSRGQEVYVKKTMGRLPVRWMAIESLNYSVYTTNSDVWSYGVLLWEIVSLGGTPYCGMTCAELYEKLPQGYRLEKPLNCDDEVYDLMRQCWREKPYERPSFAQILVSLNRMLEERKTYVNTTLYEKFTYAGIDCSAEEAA
UniProt O15123, residues 19-496: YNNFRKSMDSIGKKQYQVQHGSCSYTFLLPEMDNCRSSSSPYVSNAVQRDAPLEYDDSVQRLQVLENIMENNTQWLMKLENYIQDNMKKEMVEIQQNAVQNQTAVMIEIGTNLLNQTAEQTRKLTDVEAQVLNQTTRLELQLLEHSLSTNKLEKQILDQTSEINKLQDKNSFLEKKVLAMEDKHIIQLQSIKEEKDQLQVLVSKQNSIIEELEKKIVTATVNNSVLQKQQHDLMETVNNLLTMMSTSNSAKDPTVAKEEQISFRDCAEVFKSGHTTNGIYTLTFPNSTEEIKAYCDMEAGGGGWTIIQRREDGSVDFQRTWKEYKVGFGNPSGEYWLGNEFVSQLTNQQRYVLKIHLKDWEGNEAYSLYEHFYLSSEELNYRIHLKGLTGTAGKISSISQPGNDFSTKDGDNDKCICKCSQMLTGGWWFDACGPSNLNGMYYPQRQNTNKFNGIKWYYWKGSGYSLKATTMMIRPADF

Biological target: human Tie2 on HEK293-Tie2 cells (clone 22) (human) (UniProt Q02763)
Experiment: flow cytometry on cells; hAng-2 bound to hTie2 on HEK293-Tie2 cells, detected with a biotinylated non-interfering anti-human Ang-2 antibody and PE-labeled Streptavidin; Ang-2 antibodies titrated from 0.0025 to 10 ug/mL; only the binder purified

binding: binds
Substance: human Angiopoietin-2 (from UniProt O15123 19-496) (ligand)
